This passage reports binding results from doi:10.1101/2025.09.09.675182.

Amino acid sequences for entries named in this document (tags omitted).
UniProt Q9ULW0: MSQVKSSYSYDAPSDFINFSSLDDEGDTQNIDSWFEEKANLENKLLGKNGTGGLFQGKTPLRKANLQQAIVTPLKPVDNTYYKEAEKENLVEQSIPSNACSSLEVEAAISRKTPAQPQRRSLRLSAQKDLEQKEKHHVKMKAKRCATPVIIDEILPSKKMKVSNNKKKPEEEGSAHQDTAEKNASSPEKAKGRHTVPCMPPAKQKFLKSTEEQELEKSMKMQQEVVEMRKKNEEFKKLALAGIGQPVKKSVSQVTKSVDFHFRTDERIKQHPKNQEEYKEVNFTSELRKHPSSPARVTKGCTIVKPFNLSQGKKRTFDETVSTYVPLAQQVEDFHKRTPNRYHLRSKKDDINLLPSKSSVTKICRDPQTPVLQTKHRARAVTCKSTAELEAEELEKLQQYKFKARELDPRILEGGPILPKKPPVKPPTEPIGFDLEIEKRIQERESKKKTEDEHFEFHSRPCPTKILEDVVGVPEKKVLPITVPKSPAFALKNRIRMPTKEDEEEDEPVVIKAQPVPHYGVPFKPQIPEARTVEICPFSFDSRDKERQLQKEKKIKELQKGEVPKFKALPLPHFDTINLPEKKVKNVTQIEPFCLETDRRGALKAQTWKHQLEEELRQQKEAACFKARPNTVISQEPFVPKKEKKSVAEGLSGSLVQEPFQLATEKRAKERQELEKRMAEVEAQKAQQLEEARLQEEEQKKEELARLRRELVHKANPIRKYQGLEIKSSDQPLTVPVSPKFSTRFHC

No constants are given. Whether binding was seen depends on the method and setting. In cells and extracts the contact can be indirect. Some results given as binding are weak or reduced against the parent protein; the word gives no strength. For some assays here: Where a sequence is shown, tags or fusion partners need not be part of it.

The target of test [1] is T1, Cytoskeleton Associated Protein-2 (CKAP2) (human (endogenous in RPE1)) (UniProt Q8WWK9).
T1 sequence: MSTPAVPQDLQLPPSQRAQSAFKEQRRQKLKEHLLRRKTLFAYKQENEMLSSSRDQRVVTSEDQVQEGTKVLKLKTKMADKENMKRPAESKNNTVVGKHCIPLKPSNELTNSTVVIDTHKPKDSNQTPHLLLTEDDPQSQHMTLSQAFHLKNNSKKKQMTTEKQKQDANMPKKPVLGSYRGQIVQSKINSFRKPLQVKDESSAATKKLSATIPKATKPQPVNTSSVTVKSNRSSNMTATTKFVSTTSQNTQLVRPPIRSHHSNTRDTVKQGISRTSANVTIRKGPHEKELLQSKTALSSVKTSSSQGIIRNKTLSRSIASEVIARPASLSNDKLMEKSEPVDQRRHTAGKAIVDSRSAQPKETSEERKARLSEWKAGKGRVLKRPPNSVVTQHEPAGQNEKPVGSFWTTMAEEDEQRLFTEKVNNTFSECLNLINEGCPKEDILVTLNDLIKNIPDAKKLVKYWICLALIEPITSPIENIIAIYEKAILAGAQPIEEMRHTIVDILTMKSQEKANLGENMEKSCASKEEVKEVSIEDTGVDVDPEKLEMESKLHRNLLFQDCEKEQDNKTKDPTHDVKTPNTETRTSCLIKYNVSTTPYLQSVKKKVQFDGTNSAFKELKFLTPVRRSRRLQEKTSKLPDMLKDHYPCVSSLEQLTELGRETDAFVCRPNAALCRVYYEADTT
Kind of test: co-IP.

For test [2], the target named is T2, His-mmCKAP2-GFP-Strep fragment, C-terminus (550-664) (mouse) (UniProt Q3V1H1).
T2 sequence: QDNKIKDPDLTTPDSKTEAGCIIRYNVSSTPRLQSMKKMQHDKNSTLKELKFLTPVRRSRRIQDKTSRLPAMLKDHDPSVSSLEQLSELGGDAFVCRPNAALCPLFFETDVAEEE
The experiment in a line: pull-down.

The target of test [3] is T3, His-mmCKAP2-GFP-Strep fragment, N-terminal alpha-helical domain (1-60) (mouse) (UniProt Q3V1H1).
T3 sequence: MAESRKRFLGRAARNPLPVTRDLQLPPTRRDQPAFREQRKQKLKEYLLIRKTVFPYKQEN
The experiment in a line: pull-down.

Test [4] concerns the target T4, His-mmCKAP2-GFP-Strep fragment, alpha-helical bundle (346-549) (mouse) (UniProt Q3V1H1).
T4 sequence: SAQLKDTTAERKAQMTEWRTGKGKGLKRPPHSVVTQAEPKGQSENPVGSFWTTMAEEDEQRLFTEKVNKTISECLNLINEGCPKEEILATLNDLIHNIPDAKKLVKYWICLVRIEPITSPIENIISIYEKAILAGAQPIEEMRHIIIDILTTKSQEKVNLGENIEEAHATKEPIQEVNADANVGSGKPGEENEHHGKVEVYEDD
The experiment in a line: pull-down.

Consider TPX2 (from UniProt Q9ULW0 1-747), for which the binding entry in test [1] is listed as “binds”; in test [2], “binds”; in test [3] it was “binds”; in test [4] it was “no binding”.

B1: Aurora Kinase A (enzyme, UniProt O14965 1-403)
chain: MDRSKENCISGPVKATAPVGGPKRVLVTQQFPCQNPLPVNSGQAQRVLCPSNSSQRIPLQAQKLVSSHKPVQNQKQKQLQATSVPHPVSRPLNNTQKSKQPLPSAPENNPEEELASKQKNEESKKRQWALEDFEIGRPLGKGKFGNVYLAREKQSKFILALKVLFKAQLEKAGVEHQLRREVEIQSHLRHPNILRLYGYFHDATRVYLILEYAPLGTVYRELQKLSKFDEQRTATYITELANALSYCHSKRVIHRDIKPENLLLGSAGELKIADFGWSVHAPSSRRTTLCGTLDYLPPEMIEGRMHDEKVDLWSLGVLCYEFLVGKPPFEANTYQETYKRISRVEFTFPDFVTEGARDLISRLLKHNPSQRPMLREVLEHPWITANSSKPSNCQNKESASKQS
On to B1, for which the binding result in test [4] is recorded as “no binding”.
